As a reminder, the AC50 is the concentration at which the activity in the assay is half-maximal. A higher AC50 goes with weaker potency.

Where “and” joins values, the source holds several entries; their conditions need not be identical. Equal values may be shown once. This is one part of the list. Shown are side measurements of this screen, not its main read-out; they come without a call. The list favours compounds with an active or inconclusive main result. Words in brackets tell the shape of the fitted curve; partial curves, single points and poor fits give uncertain potencies.

In PubChem BioAssay AID2685 (National Center for Advancing Translational Sciences (NCATS), 2010) one finds cell number change and AC50 data, which are given here for 64 molecules.

This assay can be described thus: qHTS Assay for Lipid Storage Modulators in Drosophila S3 Cells.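 As to cell number change: cells counted by Cell Tracker Red CMTPX staining in the red channel.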 The following applies: BODIPY lipid droplet fluorescence, 18-24 h; for cell number change: measured here: cell count max response, cells fed with added oleic acid. A digest of the protocol: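 Drosophila S3 cells got compounds at several concentrations plus oleic acid (400 uM solution). Laser-scanning cytometry with 488 nm excitation read lipid droplets at 500-530 nm and cells at 575-640 nm. Percent activity was relative to 20 uM Triacsin C.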

Setting [1] is: measured here: cell number channel AC50, cells fed with added oleic acid.
[2] abbreviates: measured here: lipid fluorescence (Fed channel) AC50, cells fed with added oleic acid.

On to `O=C(Nc1ccc(F)c(Cl)c1)C1CCN(c2ncnc3c2nc2n3CCCCC2)CC1`, for which the cell number change was determined as 27.2%. The half-maximal activity concentration (AC50) under setting [1] is 0.0411 µM [rising, full curve, poor fit]. Besides, the AC50 under setting [2] is 0.731 µM [rising, full curve]. Take `Clc1ccc(C(c2ccccc2Cl)C(Cl)Cl)cc1` (configuration not stated): the cell number change was -37.6%. For the same molecule, the AC50 under setting [1] was 32.6 µM [falling, single point]. Under setting [2], the AC50 was 29.1 µM [falling, single point]. Consider `O=c1cc(-c2ccc([N+](=O)[O-])cc2)c2cc3c(cc2[nH]1)OCCO3`, for which the cell number change came out at 19.6%. Further, the AC50 under setting [2] was 2.91 µM [rising, single point]. In the case of `CCc1c(C)[nH]n(CCC#N)c1=O`, the cell number change is 5.05%. Besides, the AC50 under setting [1] is 0.82 µM [rising, single point]. Also, the AC50 under setting [2] is 0.731 µM [rising, single point]. In the case of `N#Cc1c(SC(C(=O)O)c2ccccc2)nc2c(c1-c1cccs1)CCCC2` (configuration not stated), the cell number change is 4.06%.

Take `Cn1nnnc1SCC(=O)NNC(=O)c1ccc(F)cc1`: the cell number change is -36.2%. Moreover, under setting [1], the AC50 was 4.11 µM [falling, full curve]. Also, the AC50 under setting [2] was 2.91 µM [falling, full curve]. On to `CCN(CC)S(=O)(=O)c1cccc(NC(=O)CCSc2ccc(Cl)cc2)c1`, for which the cell number change is -33.3%. Besides, the AC50 under setting [1] is 14.6 µM [falling, single point]. In addition, under setting [2], the AC50 is 25.9 µM [falling, single point]. Take `O=C(COC(=O)C1CCN(c2ccc(C(F)(F)F)cn2)CC1)c1ccccc1`: the cell number change was -9%. For `O=C(c1ccccc1)N1CCCN(c2nccc(C(F)(F)F)n2)CC1`, the cell number change is 12.2%. For the same molecule, the AC50 under setting [1] is 0.00461 µM [rising, full curve, poor fit]. With `COc1ccc(C(NC(C)=O)c2nccc3cc(OC)c(OC)cc23)cc1OC` (configuration not stated), the cell number change is 19%. In addition, the AC50 under setting [2] is 29.1 µM [rising, single point]. Consider `CC1CCN(c2ccc3nnc(CCC(=O)Nc4ccc(F)cc4)n3n2)CC1`, for which the cell number change was found to be 4.2%. Besides, the AC50 under setting [2] is 6.51 µM [falling, single point].

`CCNc1nc(C#N)nc2c1ncn2-c1cc(F)cc(F)c1`: the cell number change was -8.47%. Turning to `COc1cccc(NC(=O)C2CCN(S(=O)(=O)c3ccc4c(c3)OCCO4)CC2)c1`, the cell number change was found to be 23.7%. The AC50 under setting [2] is 29.1 µM [rising, single point]. Regarding `Cc1cc(=O)oc2c(C)c(OCC(=O)N(C)C)ccc12`, the cell number change stood at 17.3%.

Consider `CCC/C(O)=C1\C(=O)CC(c2ccccc2)CC1=NC(C)C(=O)O` (configuration not stated), for which the cell number change was -16.8%. On to `COc1cccc(C(=O)NCC(=O)N/N=C/c2ccc(OC(=O)c3cccs3)c(OC)c2)c1`, for which the cell number change is -32.6%. For the same molecule, the AC50 under setting [1] was 0.58 µM [falling, partial curve]. In addition, the AC50 under setting [2] is 0.651 µM [falling, full curve]. Consider `CCCNC(=O)COC(=O)c1cc2c(=O)n3ccccc3nc2s1`, for which the cell number change is 8.39%. The AC50 under setting [2] was 9.2 µM [rising, partial curve]. Turning to `CCn1c(SCC(=O)Nc2ccc(OC)cc2)nc2c1c(=O)n(C)c(=O)n2C`, the cell number change stood at 17.9%.

As to `CCOP(=O)(OCC)C(Nc1cccc([N+](=O)[O-])c1)c1ccc(OC)cc1` (configuration not stated), the cell number change was -19.9%.

Regarding `NC(=O)c1cc([N+](=O)[O-])ccc1NCc1ccccn1`, the cell number change came out at 29.6%. Also, the AC50 under setting [1] is 0.326 µM [rising, full curve, poor fit]. Under setting [2], the AC50 was 23.1 µM [rising, partial curve, poor fit]. Consider `COc1ccc(Cl)cc1-c1nc(SCC(=O)NC2CCS(=O)(=O)C2)n[nH]1` (configuration not stated), for which the cell number change was determined as 20.4%.

Regarding `N#C/C=C/N1CCC(Cc2ccccc2)CC1`, the cell number change was -5.26%. `Cc1ccnc(NC(=O)C2CCCN(S(=O)(=O)c3ccc4[nH]c(=O)ccc4c3)C2)c1` (configuration not stated): the cell number change was -12.2%. Under setting [2], the AC50 is 14.6 µM [falling, partial curve]. For the molecule `CCCNc1c(N)c(=O)c1=O`, the cell number change is -26.1%. Further, the AC50 under setting [2] was 5.17 µM [falling, full curve]. Consider `Oc1ccccc1C1=NN(c2ccccc2)C(c2ccc(F)cc2)C1` (configuration not stated), for which the cell number change is -22.7%. Also, the AC50 under setting [2] was 0.58 µM [falling, partial curve, poor fit].

With `CC(OC(=O)c1cccs1)C(=O)NC1CC1` (configuration not stated), the cell number change is -1.26%. As to `CC(NC(=O)c1ccco1)C(=O)N1CCN(S(=O)(=O)c2ccccc2C#N)CC1` (configuration not stated), the cell number change was -0.452%. Besides, the AC50 under setting [2] was 14.6 µM [falling, partial curve]. In the case of `N#Cc1ccc(NC(=O)CN2C(=O)NC3(CCCC3)C2=O)cc1`, the cell number change was found to be 17.1%. As for `O=C(C1CCCCN1S(=O)(=O)c1ccccc1[N+](=O)[O-])N1CCCC1` (configuration not stated), the AC50 under setting [2] was 0.13 µM [falling, full curve, poor fit].

As to `O=C(Nc1ccc(-c2nc3cccnc3s2)cc1)c1ccc(Br)o1`, the AC50 was 0.116 µM [rising, full curve, poor fit] under setting [1] and 0.326 µM [rising, full curve] under setting [2].

As for `Cc1ccc(C(=O)c2coc3c2C(=O)C(=O)c2ccccc2-3)cc1`, the cell number change was -66.9%. In addition, the AC50 under setting [1] is 23.1 µM [falling, partial curve]. Besides, the AC50 under setting [2] is 32.6 µM [falling, partial curve].

Consider `N#CC1=C(S)N(c2ccccc2)C2(CCCCC2)NC1=O`, for which the cell number change turned out to be 78.7%. Under setting [1], the AC50 is 20.6 µM [rising, partial curve]. The AC50 under setting [2] was 25.9 µM [falling, partial curve, poor fit]. Turning to `CCCCC(C)n1[nH]c(=O)cc1N` (configuration not stated), under setting [2], the AC50 is 0.651 µM [falling, partial curve].

For the molecule `O=Cc1cn[nH]c1-c1ccccc1`, the cell number change came to 20%. The AC50 under setting [2] is 23.1 µM [rising, single point]. Turning to `CCCCCCCN1CCC(=O)N([C@H](CO)CC(C)C)CC1`, the cell number change turned out to be 30.5%. Besides, under setting [1], the AC50 was 3.66 µM [rising, partial curve, poor fit]. As for `CCN1CCN(S(=O)(=O)c2ccc(OC)cc2)CC1`, the cell number change was -0.829%.

Turning to `O=C(CCC(=O)OCC(=O)c1ccc(Br)cc1)Nc1cccc2cccnc12`, the AC50 under setting [2] is 3.66 µM [falling, single point].

With `COc1cc(/C=C2\CCC(C3CCCC3)C2=O)cc(OC)c1OC` (configuration not stated), the cell number change amounted to 14.3%. In addition, the AC50 under setting [2] was 20.6 µM [falling, partial curve, poor fit]. For the molecule `CN(C)c1nc(N)nc(CSc2nnnn2-c2ccccc2)n1`, the cell number change amounted to 16.9%. The AC50 under setting [1] was 0.13 µM [rising, full curve, poor fit].

Turning to `Cc1cc(C)n2nc(S(=O)(=O)N(C)Cc3ccccc3)nc2n1`, the cell number change was 66.6%. Take `CCn1c(CNC(=O)c2cccc(C)c2)nc2ccccc21`: under setting [2], the AC50 is 0.82 µM [rising, single point].

Turning to `COc1ccc(C)cc1NC(=O)CSc1ccc(Cl)cc1`, the cell number change came to 35.2%. Further, under setting [1], the AC50 was 8.2 µM [rising, partial curve]. For the same molecule, under setting [2], the AC50 was 2.59 µM [rising, full curve, poor fit].

For the molecule `CCCc1ccc(-c2cc(C(=O)N3CCN(c4ccccn4)CC3)c3ccccc3n2)cc1`, the cell number change was 14.2%. Also, the AC50 under setting [1] was 3.66 µM [rising, partial curve]. `CCCCCn1c(=N)n(CC(O)COc2ccccc2OC)c2ccccc21` (configuration not stated): the cell number change was -2.06% and -25.2%. Under setting [2], the AC50 is 2.31 µM [rising, partial curve] and 7.31 µM [falling, partial curve]. For the molecule `c1ccc2c(c1)ncn2Cc1nnc2sc(-c3ccncc3)nn12`, the cell number change is 65.9%. Moreover, under setting [1], the AC50 is 14.6 µM [rising, partial curve]. Moreover, the AC50 under setting [2] was 29.1 µM [rising, single point]. With `O=C(NNC(=O)C1CC(c2cccs2)=NO1)Nc1ccccc1` (configuration not stated), the cell number change was -32%. Under setting [1], the AC50 was 35.5 µM [falling, single point]. With `CC1CCN(C(=O)Cn2c3ccc(F)cc3c3nc4n(c(=O)c32)CCCS4)CC1`, the cell number change turned out to be 20.1%. Under setting [2], the AC50 is 0.0651 µM [falling, partial curve, poor fit]. As to `COc1ccc(CN(C)C(C)C(=O)Nc2ccc(S(=O)(=O)N3CCOCC3)cc2)c(OC)c1` (configuration not stated), the cell number change was -17.9%. The AC50 under setting [1] is 6.51 µM [falling, single point]. In addition, the AC50 under setting [2] is 6.51 µM [falling, single point].

As to `COc1ccc(N2Cc3cccc(C(=O)NC(C)CCc4ccco4)c3C2=O)cc1` (configuration not stated), the cell number change is -0.253%. Also, the AC50 under setting [2] is 1.16 µM [rising, single point]. As to `O=C(c1ccc(Cl)c(S(=O)(=O)NCc2cccnc2)c1)N1CCCC1`, the cell number change was -6.62%. Consider `CCCCNC(=O)Nc1nnc(C(C)(C)C)s1`, for which the cell number change was -19.4%. On to `CCOC(=O)c1oc2ccccc2c1NC(=O)c1ccc(Cl)s1`, for which the AC50 runs as follows: under setting [1], 0.461 µM [rising, single point]; under setting [2], 1.03 µM [rising, full curve]. For `CN(Cc1ccc(C(F)(F)F)cc1)C(=O)C1CCC(=O)N(C2CC2)C1` (configuration not stated), the cell number change came out at 4.62%. The AC50 under setting [2] is 29.1 µM [rising, single point].

As to `COc1ccc(N(C)S(=O)(=O)c2ccc3c(c2)CCC(=O)N3)cc1`, the cell number change is -2.23%.

In the case of `CC1CCCN(C(=O)c2nn(C)c3c2CSc2ccccc2-3)C1` (configuration not stated), the cell number change was -8.36%. Also, the AC50 under setting [2] was 0.731 µM [rising, full curve]. In the case of `Cc1ccc(Cn2nc(C)c(NC(=O)c3cc(-c4ccco4)on3)c2C)cc1`, the cell number change was -11.5%. Turning to `O=C(Cn1ccc2ccccc2c1=O)NCCC(=O)Nc1cccnc1`, the cell number change came out at 18.9%. Moreover, the AC50 under setting [2] is 29.1 µM [rising, single point].

For `O=C(OCCCc1cc2ccccc2c(=O)o1)c1ccc(C(F)(F)F)cc1`, the cell number change is -1.02%. In addition, under setting [2], the AC50 was 0.13 µM [rising, full curve]. On to `CCc1cc(=O)oc2cc(OCC(=O)N(CC)CC)c(Cl)cc12`, for which the cell number change is 20.9%. The AC50 under setting [2] was 0.00411 µM [rising, full curve, poor fit].

Take `O=C(CSc1nnc(-c2ccccc2O)o1)N1CCOCC1`: the cell number change worked out at 8.87%. With `O=C(CSc1ccc(Cl)cc1)Nc1cccc(NC(=O)c2ccco2)c1`, the cell number change stood at 2.99%. Under setting [1], the AC50 was 6.51 µM [rising, single point]. On to `COC(=O)c1[nH]c2ccc(C)cc2c1NC(=O)Nc1ccccc1OC`, for which the cell number change was -0.711%. For the same molecule, under setting [2], the AC50 is 0.326 µM [rising, full curve, poor fit]. Take `CC(C)(C)N(CC#CCC(O)(c1ccccc1)C1CCCC1)CCO` (configuration not stated): the cell number change is 7.64%. As for `O=C(CCC(=O)c1ccc(-c2ccccc2)cc1)Nc1cccnc1`, the cell number change is 31%. Also, under setting [1], the AC50 is 5.17 µM [rising, partial curve, poor fit].
